Assay results as given in PubChem BioAssay AID540256 (National Center for Advancing Translational Sciences (NCATS), 2011).
In all, about 300,000 compounds went through this assay and about 3,700 (1.2%) were called active. The shares of active, inactive and inconclusive entries below differ from those in the screen. Calls come from the whole dose curve; tested in HEK293 cells. Potencies beside an inconclusive call are fits to weak or partial responses and may not hold up.

Experiment: qHTS for Inhibitors of binding or entry into cells for Lassa Virus; note: nearly all actives have a fitted effect of over 50% in size
Conditions: Lassa virus pseudotype entry inhibition, cell reporter; series mostly up to 37.9 µM
Potency is the fitted concentration of half-maximal effect.

| SMILES | Potency |
| --- | --- |
| CCCCn1c(=N)n(CCOc2ccc(C)cc2)c2ccccc21 | inconclusive: 29.1 µM [inhibitor, single point] |
| Cc1c(C(=O)N/N=C/c2ccc(N(C)C)cc2)[nH]c2ccc(Cl)cc12 | inconclusive: 5.8 µM [inhibitor, full curve, poor fit] |
| CC1CCCCN1c1ncnc2ccccc12 (configuration not stated) | inconclusive: 29.1 µM [inhibitor, single point] |
| CC(=O)Nc1ccc2c(CSc3nnc(-c4cccnc4)n3-c3ccc(C)cc3C)cc(=O)oc2c1 | inconclusive: 13 µM [inhibitor, partial curve, poor fit] |
| Cn1c(=Nc2ccccc2)sc2ccccc21 | inconclusive: 5.17 µM [activator, full curve, poor fit] |
| O=C1CCc2cc(S(=O)(=O)NCc3ccc(F)cc3)cc3c2N1CCC3 | inconclusive: 12.6 µM [inhibitor, partial curve, poor fit] |
| Cc1ccc(N(C)C(=O)CN2C(=O)CCc3cc(S(=O)(=O)N4CCOCC4)ccc32)cc1 | inactive |
| COC(=O)[C@@H](NC(=O)O[C@@H]1C(=O)c2ccc(OC)cc2O[C@H]1c1cccc(C(F)(F)F)c1)C(C)C | inconclusive: 32.6 µM [inhibitor, single point] |
| COc1cccc(CNC(=O)CN(C)S(=O)(=O)c2ccc(Br)s2)c1 | inactive |
| O=c1[nH]c2ccccc2c2cn(-c3ccccc3)nc12 | inconclusive: 1.78 µM [activator, partial curve, poor fit] |
| O=C(c1cc(-c2cccc(Cl)c2)on1)N1CCN(c2ccc(F)cc2)CC1 | inactive |
| Cc1c(C(=O)N2CCC3(CC2)OCCO3)sc2ncnc(N3CCN(c4ccccn4)CC3)c12 | inconclusive: 29.1 µM [inhibitor, single point] |
| O=C(CCc1ccc(S(=O)(=O)NC2CCCCC2)cc1)Nc1ccccc1 | inactive |
| COCCn1cnc2c1c(=O)n(CC(=O)Nc1cc(C)on1)c(=O)n2Cc1ccccc1 | inactive |
| CCC(CC)c1nnc(NC(=O)COc2ccc3c(C)cc(=O)oc3c2)s1 | inconclusive: 0.092 µM [inhibitor, full curve] |
| O=C(Nc1ccc(N2CCOCC2)cc1)Nc1ccc(Cl)c(Cl)c1 | inconclusive: 1.03 µM [activator, partial curve, poor fit] |
| Cc1cc(C)cc(N(C(=O)c2sc(C)nc2C)C(C(=O)NCc2ccco2)c2ccccc2)c1 (configuration not stated) | inconclusive: 1.83 µM [inhibitor, full curve, poor fit] |
| Cc1cc(NC(=O)c2ccc(Cn3nc(C)c(Br)c3C)o2)no1 | inactive |
| COc1cc(S(=O)(=O)N(CCc2ccccc2)Cc2cccs2)ccc1-n1cnnn1 | inconclusive: 8.2 µM [inhibitor, partial curve, poor fit] |
| O=[N+]([O-])c1cc([N+](=O)[O-])c2cc(-c3cccnc3)[nH]c2c1 | inactive |
| CC(Cc1ccccc1)C(=O)Nc1ccccc1 (configuration not stated) | inactive |
| COc1ccc(C=O)cc1COc1ccc(Cl)cc1[N+](=O)[O-] | inconclusive: 18.3 µM [inhibitor, single point] |
| O=C(CSc1nccn1Cc1ccco1)Nc1cc(C(F)(F)F)ccc1Cl | inactive |

| SMILES | Potency |
| --- | --- |
| O=C(c1ccc2c(Cl)c3c(nc2c1)CCCC3)N1CCN(c2cccc(C(F)(F)F)c2)CC1 | inactive |
| O=C(Nc1ccc(S(=O)(=O)N2CCOCC2)cc1)c1ccco1 | inactive |
| S=C(Nc1ccc2c(c1)OCCO2)Nc1ccccc1Cl | inactive |
| COc1cc(OC)c(C(=O)/C=C/c2ccc(OCc3ccccc3)c(OC)c2)c(OC)c1 | inconclusive: 11.2 µM [inhibitor, partial curve, poor fit] |
| COc1ccc(CNC(=O)CCCn2nc(C)c3c(C)n(-c4ccc(C)cc4)nc3c2=O)cc1OC | inconclusive: 11.2 µM [inhibitor, partial curve, poor fit] |
| COc1ccccc1NC(=O)NNC(=O)CCc1ccccc1 | inactive |
| Cc1ccc(N2CCN(C(=O)c3cnn(-c4ccc(C)c(C)c4)c3C3CCNCC3)CC2)c(C)c1 | inconclusive: 17.8 µM [inhibitor, single point] |
| O=C(N/N=C/c1ccccn1)c1[nH]c2ccc([N+](=O)[O-])cc2c1-c1ccccc1 | inconclusive: 17.8 µM [inhibitor, partial curve, poor fit] |
| COc1ccc(CCN2C(=O)c3cccc4cccc(c34)C2=O)cc1OC | inactive |
| CCCCCNC(=O)c1ccc2c(c1)ncn2-c1ccc(OC)cc1 | inconclusive: 35.5 µM [inhibitor, partial curve, poor fit] |
| COc1ccc(-n2c(O)c(C=Nc3c(C)n(C)n(-c4ccccc4)c3=O)c(=O)[nH]c2=O)cc1 | inconclusive: 35.5 µM [activator, single point] |
| CCc1ccc(NC(=O)C(C)OC(=O)c2ccc(NS(=O)(=O)c3ccc(C)c([N+](=O)[O-])c3)cc2)cc1 (configuration not stated) | inconclusive: 20.6 µM [inhibitor, partial curve] |
| Cc1c(C)c2cc(Cl)c(O)c(CN3CCCCC3)c2oc1=O | inconclusive: 8.2 µM [activator, partial curve, poor fit] |
| CC(C)(C)NS(=O)(=O)c1ccc(CCC(=O)Nc2cc(Cl)ccc2Oc2ccccc2)cc1 | inconclusive: 22.4 µM [inhibitor, single point] |
| CCCN1CCN(C(=S)Nc2ccc3nc(N4CCN(CC)CC4)cc(C)c3c2)CC1 | inconclusive: 11.2 µM [inhibitor, partial curve, poor fit] |
| COc1ccc(OC)c(NC(=O)CCNS(=O)(=O)c2ccc3c(c2)oc(=O)n3C)c1 | inactive |
| CCN(CC)S(=O)(=O)c1ccc(C)c(NC(=O)c2cc(C)oc2C)c1 | inconclusive: 10 µM [inhibitor, partial curve, poor fit] |
| Cc1cc(/C=C2/NC(=O)N(Cc3ccccc3F)C2=O)c(C)n1C | inconclusive: 32.6 µM [activator, single point] |
| O=C(COc1ccc(Oc2ccccc2)cc1)NCc1cn2ccccc2n1 | inconclusive: 25.1 µM [inhibitor, single point] |
| Cc1cc(C)n(-c2nc3ccccc3s2)n1 | inactive |
| OCCn1c(-c2ccc3c(c2)OCO3)csc1=Nc1ccccc1 | inconclusive: 9.2 µM [inhibitor, single point] |
| CCc1ccc(Nc2sc(C(=O)c3ccc(F)cc3)c(N)c2S(=O)(=O)c2ccccc2)cc1 | inconclusive: 1.26 µM [inhibitor, full curve, poor fit] |
| O=c1/c(=C\c2ccc(O)cc2)sc2n1C(c1ccccc1)C(c1ccccc1)=NN=2 (configuration not stated) | inactive |

Laid out differently: 4 of the compounds above.
CCC(CC)c1nnc(NC(=O)COc2ccc3c(C)cc(=O)oc3c2)s1
  Potency: inconclusive: 0.092 µM [inhibitor, full curve]
O=C(Nc1ccc(N2CCOCC2)cc1)Nc1ccc(Cl)c(Cl)c1
  Potency: inconclusive: 1.03 µM [activator, partial curve, poor fit]
Cc1cc(C)cc(N(C(=O)c2sc(C)nc2C)C(C(=O)NCc2ccco2)c2ccccc2)c1 (configuration not stated)
  Potency: inconclusive: 1.83 µM [inhibitor, full curve, poor fit]
Cc1cc(NC(=O)c2ccc(Cn3nc(C)c(Br)c3C)o2)no1
  Potency: inactive

(cont.)

| SMILES | Potency |
| --- | --- |
| O=C(COc1ccc([N+](=O)[O-])cc1)Nc1ccc(S(=O)(=O)N2CCOCC2)cc1 | inconclusive: 3.16 µM [inhibitor, single point] |
| COc1cc(OC)c(NC(=O)C2CCN(S(=O)(=O)c3ccc4c(c3)oc(=O)n4C)CC2)cc1Cl | inactive |
| CC(=O)c1sc(N/N=C\c2ccccc2O)nc1C | inconclusive: 25.1 µM [inhibitor, single point] |
| CCc1c(C)nc(SCC(=O)c2ccc(C)c(C)c2)[nH]c1=O | inactive |
| CNCC/C=C1/c2ccccc2CSc2ccccc21 | inconclusive: 29.1 µM [inhibitor, single point] |
| O=C(Nc1ccc(F)cc1)c1ccccc1 | inconclusive: 18.3 µM [activator, partial curve, poor fit] |
| O=C(COc1ccc(Br)cc1CNC1CCCCC1)NCCc1ccccc1 | inconclusive: 12.6 µM [inhibitor, partial curve, poor fit] |
| Cc1ccc(OCC(=O)N/N=C\c2ccc(C)o2)c([N+](=O)[O-])c1 | inactive |
| N#Cc1cc2cc3c(cc2nc1N1CCCCC1)OCCO3 | inconclusive: 0.447 µM [activator, full curve, poor fit] |
| O=C(C1CCN(Cc2ccccc2O)CC1)N1CCN(Cc2ccc3c(c2)OCO3)CC1 | inactive |
| COc1ccc(-c2nc3ccccc3c(=O)n2-c2cccnc2)cc1 | inactive |
| COc1cccc(C(=O)Oc2ccc(/C=N/NC(=O)c3ccncc3)cc2OC)c1 | inconclusive: 35.5 µM [inhibitor, single point] |
| O=C(COc1ccc(Br)cc1)N1CCN(Cc2c[nH]c3ccccc23)CC1 | inconclusive: 0.708 µM [activator, single point] |
| Cc1nc(C)c(C(=O)NCCC(c2ccccc2)c2ccccc2)o1 | inconclusive: 10 µM [inhibitor, partial curve, poor fit] |
| CSCCC(NC(=O)C12CC3CC(CC(C3)C1)C2)C(=O)OCC(=O)c1ccc(Cl)cc1 (configuration not stated) | inconclusive: 0.206 µM [inhibitor, full curve] |
| CCc1ccc(N2C(=O)CC(N3CCN(c4ccccn4)CC3)C2=O)cc1 (configuration not stated) | inactive |
| Cc1ccc(Cl)cc1NC(=O)N(Cc1ccc2c(c1)OCO2)C1CCN(Cc2ccccc2)CC1 | inconclusive: 35.5 µM [inhibitor, partial curve, poor fit] |
| CCOC(=O)c1c(C)oc2c(CC(=O)c3ccccc3)c(Cl)c(O)c(O)c12 | inconclusive: 18.4 µM [inhibitor, partial curve, poor fit] |
| CCc1nn(-c2cc(Cl)ccc2OC)c2c1C(=O)CCC2 | inconclusive: 12.6 µM [inhibitor, partial curve] |
| Cc1ccc2c(c1)c1c3n2CCN(C(=O)c2ccc(C(F)(F)F)cc2)C3CCC1 (configuration not stated) | inactive |
| O=C(Cc1ccccc1)NC(=S)Nc1cccc(C(F)(F)F)c1 | inconclusive: 7.08 µM [inhibitor, full curve] |
